Among the data in publication PMC9900092 are binding values, retold here.

Sequences and labels used below:
B1: HypD variant G146A (protein, UniProt P24192 1-373)
chain: MRFVDEYRAPEQVMQLIEHLRERASHLSYTAERPLRIMEVCGGHTHAIFKFGLDQLLPENVEFIHGPGCPVCVLPMGRIDTCVEIASHPEVIFCTFGDAMRVPGKQGSLLQAKARGADVRIVYSPMDALKLAQENPTRKVVFFGLAFETTMPTTAITLQQAKARDVQNFYFFCQHITLIPTLRSLLEQPDNGIDAFLAPGHVSMVIGTDAYNFIASDFHRPLVVAGFEPLDLLQGVVMLVQQKIAAHSKVENQYRRVVPDAGNLLAQQAIADVFCVNGDSEWRGLGVIESSGVHLTPDYQRFDAEAHFRPAPQQVCDDPRARCGEVLTGKCKPHQCPLFGNTCNPQTAFGALMVSSEGACAAWYQYRQQESEA
B2: HypD variant C360H (protein, UniProt P24192 1-373)
chain: MRFVDEYRAPEQVMQLIEHLRERASHLSYTAERPLRIMEVCGGHTHAIFKFGLDQLLPENVEFIHGPGCPVCVLPMGRIDTCVEIASHPEVIFCTFGDAMRVPGKQGSLLQAKARGADVRIVYSPMDALKLAQENPTRKVVFFGLGFETTMPTTAITLQQAKARDVQNFYFFCQHITLIPTLRSLLEQPDNGIDAFLAPGHVSMVIGTDAYNFIASDFHRPLVVAGFEPLDLLQGVVMLVQQKIAAHSKVENQYRRVVPDAGNLLAQQAIADVFCVNGDSEWRGLGVIESSGVHLTPDYQRFDAEAHFRPAPQQVCDDPRARCGEVLTGKCKPHQCPLFGNTCNPQTAFGALMVSSEGAHAAWYQYRQQESEA
B3: HypD variant C323H (protein, UniProt P24192 1-373)
chain: MRFVDEYRAPEQVMQLIEHLRERASHLSYTAERPLRIMEVCGGHTHAIFKFGLDQLLPENVEFIHGPGCPVCVLPMGRIDTCVEIASHPEVIFCTFGDAMRVPGKQGSLLQAKARGADVRIVYSPMDALKLAQENPTRKVVFFGLGFETTMPTTAITLQQAKARDVQNFYFFCQHITLIPTLRSLLEQPDNGIDAFLAPGHVSMVIGTDAYNFIASDFHRPLVVAGFEPLDLLQGVVMLVQQKIAAHSKVENQYRRVVPDAGNLLAQQAIADVFCVNGDSEWRGLGVIESSGVHLTPDYQRFDAEAHFRPAPQQVCDDPRARHGEVLTGKCKPHQCPLFGNTCNPQTAFGALMVSSEGACAAWYQYRQQESEA
B4: HypD variant F147A (protein, UniProt P24192 1-373)
chain: MRFVDEYRAPEQVMQLIEHLRERASHLSYTAERPLRIMEVCGGHTHAIFKFGLDQLLPENVEFIHGPGCPVCVLPMGRIDTCVEIASHPEVIFCTFGDAMRVPGKQGSLLQAKARGADVRIVYSPMDALKLAQENPTRKVVFFGLGAETTMPTTAITLQQAKARDVQNFYFFCQHITLIPTLRSLLEQPDNGIDAFLAPGHVSMVIGTDAYNFIASDFHRPLVVAGFEPLDLLQGVVMLVQQKIAAHSKVENQYRRVVPDAGNLLAQQAIADVFCVNGDSEWRGLGVIESSGVHLTPDYQRFDAEAHFRPAPQQVCDDPRARCGEVLTGKCKPHQCPLFGNTCNPQTAFGALMVSSEGACAAWYQYRQQESEA
B5: HypD variant C323G (protein, UniProt P24192 1-373)
chain: MRFVDEYRAPEQVMQLIEHLRERASHLSYTAERPLRIMEVCGGHTHAIFKFGLDQLLPENVEFIHGPGCPVCVLPMGRIDTCVEIASHPEVIFCTFGDAMRVPGKQGSLLQAKARGADVRIVYSPMDALKLAQENPTRKVVFFGLGFETTMPTTAITLQQAKARDVQNFYFFCQHITLIPTLRSLLEQPDNGIDAFLAPGHVSMVIGTDAYNFIASDFHRPLVVAGFEPLDLLQGVVMLVQQKIAAHSKVENQYRRVVPDAGNLLAQQAIADVFCVNGDSEWRGLGVIESSGVHLTPDYQRFDAEAHFRPAPQQVCDDPRARGGEVLTGKCKPHQCPLFGNTCNPQTAFGALMVSSEGACAAWYQYRQQESEA
B6: HypD exchange variant C72A (protein, UniProt P24192 1-373)
chain: MRFVDEYRAPEQVMQLIEHLRERASHLSYTAERPLRIMEVCGGHTHAIFKFGLDQLLPENVEFIHGPGCPVAVLPMGRIDTCVEIASHPEVIFCTFGDAMRVPGKQGSLLQAKARGADVRIVYSPMDALKLAQENPTRKVVFFGLGFETTMPTTAITLQQAKARDVQNFYFFCQHITLIPTLRSLLEQPDNGIDAFLAPGHVSMVIGTDAYNFIASDFHRPLVVAGFEPLDLLQGVVMLVQQKIAAHSKVENQYRRVVPDAGNLLAQQAIADVFCVNGDSEWRGLGVIESSGVHLTPDYQRFDAEAHFRPAPQQVCDDPRARCGEVLTGKCKPHQCPLFGNTCNPQTAFGALMVSSEGACAAWYQYRQQESEA
B7: HypD variant T150A (protein, UniProt P24192 1-373)
chain: MRFVDEYRAPEQVMQLIEHLRERASHLSYTAERPLRIMEVCGGHTHAIFKFGLDQLLPENVEFIHGPGCPVCVLPMGRIDTCVEIASHPEVIFCTFGDAMRVPGKQGSLLQAKARGADVRIVYSPMDALKLAQENPTRKVVFFGLGFETAMPTTAITLQQAKARDVQNFYFFCQHITLIPTLRSLLEQPDNGIDAFLAPGHVSMVIGTDAYNFIASDFHRPLVVAGFEPLDLLQGVVMLVQQKIAAHSKVENQYRRVVPDAGNLLAQQAIADVFCVNGDSEWRGLGVIESSGVHLTPDYQRFDAEAHFRPAPQQVCDDPRARCGEVLTGKCKPHQCPLFGNTCNPQTAFGALMVSSEGACAAWYQYRQQESEA
B8: HypD variant C360D (protein, UniProt P24192 1-373)
chain: MRFVDEYRAPEQVMQLIEHLRERASHLSYTAERPLRIMEVCGGHTHAIFKFGLDQLLPENVEFIHGPGCPVCVLPMGRIDTCVEIASHPEVIFCTFGDAMRVPGKQGSLLQAKARGADVRIVYSPMDALKLAQENPTRKVVFFGLGFETTMPTTAITLQQAKARDVQNFYFFCQHITLIPTLRSLLEQPDNGIDAFLAPGHVSMVIGTDAYNFIASDFHRPLVVAGFEPLDLLQGVVMLVQQKIAAHSKVENQYRRVVPDAGNLLAQQAIADVFCVNGDSEWRGLGVIESSGVHLTPDYQRFDAEAHFRPAPQQVCDDPRARCGEVLTGKCKPHQCPLFGNTCNPQTAFGALMVSSEGADAAWYQYRQQESEA
B9: HypD variant C360G (protein, UniProt P24192 1-373)
chain: MRFVDEYRAPEQVMQLIEHLRERASHLSYTAERPLRIMEVCGGHTHAIFKFGLDQLLPENVEFIHGPGCPVCVLPMGRIDTCVEIASHPEVIFCTFGDAMRVPGKQGSLLQAKARGADVRIVYSPMDALKLAQENPTRKVVFFGLGFETTMPTTAITLQQAKARDVQNFYFFCQHITLIPTLRSLLEQPDNGIDAFLAPGHVSMVIGTDAYNFIASDFHRPLVVAGFEPLDLLQGVVMLVQQKIAAHSKVENQYRRVVPDAGNLLAQQAIADVFCVNGDSEWRGLGVIESSGVHLTPDYQRFDAEAHFRPAPQQVCDDPRARCGEVLTGKCKPHQCPLFGNTCNPQTAFGALMVSSEGAGAAWYQYRQQESEA
B10: HypD exchange variant C69A (protein, UniProt P24192 1-373)
chain: MRFVDEYRAPEQVMQLIEHLRERASHLSYTAERPLRIMEVCGGHTHAIFKFGLDQLLPENVEFIHGPGAPVCVLPMGRIDTCVEIASHPEVIFCTFGDAMRVPGKQGSLLQAKARGADVRIVYSPMDALKLAQENPTRKVVFFGLGFETTMPTTAITLQQAKARDVQNFYFFCQHITLIPTLRSLLEQPDNGIDAFLAPGHVSMVIGTDAYNFIASDFHRPLVVAGFEPLDLLQGVVMLVQQKIAAHSKVENQYRRVVPDAGNLLAQQAIADVFCVNGDSEWRGLGVIESSGVHLTPDYQRFDAEAHFRPAPQQVCDDPRARCGEVLTGKCKPHQCPLFGNTCNPQTAFGALMVSSEGACAAWYQYRQQESEA
B11: HypD variant C323D (protein, UniProt P24192 1-373)
chain: MRFVDEYRAPEQVMQLIEHLRERASHLSYTAERPLRIMEVCGGHTHAIFKFGLDQLLPENVEFIHGPGCPVCVLPMGRIDTCVEIASHPEVIFCTFGDAMRVPGKQGSLLQAKARGADVRIVYSPMDALKLAQENPTRKVVFFGLGFETTMPTTAITLQQAKARDVQNFYFFCQHITLIPTLRSLLEQPDNGIDAFLAPGHVSMVIGTDAYNFIASDFHRPLVVAGFEPLDLLQGVVMLVQQKIAAHSKVENQYRRVVPDAGNLLAQQAIADVFCVNGDSEWRGLGVIESSGVHLTPDYQRFDAEAHFRPAPQQVCDDPRARDGEVLTGKCKPHQCPLFGNTCNPQTAFGALMVSSEGACAAWYQYRQQESEA
B12: HypD variant E148A (protein, UniProt P24192 1-373)
chain: MRFVDEYRAPEQVMQLIEHLRERASHLSYTAERPLRIMEVCGGHTHAIFKFGLDQLLPENVEFIHGPGCPVCVLPMGRIDTCVEIASHPEVIFCTFGDAMRVPGKQGSLLQAKARGADVRIVYSPMDALKLAQENPTRKVVFFGLGFATTMPTTAITLQQAKARDVQNFYFFCQHITLIPTLRSLLEQPDNGIDAFLAPGHVSMVIGTDAYNFIASDFHRPLVVAGFEPLDLLQGVVMLVQQKIAAHSKVENQYRRVVPDAGNLLAQQAIADVFCVNGDSEWRGLGVIESSGVHLTPDYQRFDAEAHFRPAPQQVCDDPRARCGEVLTGKCKPHQCPLFGNTCNPQTAFGALMVSSEGACAAWYQYRQQESEA
B13: HypD variant T149A (protein, UniProt P24192 1-373)
chain: MRFVDEYRAPEQVMQLIEHLRERASHLSYTAERPLRIMEVCGGHTHAIFKFGLDQLLPENVEFIHGPGCPVCVLPMGRIDTCVEIASHPEVIFCTFGDAMRVPGKQGSLLQAKARGADVRIVYSPMDALKLAQENPTRKVVFFGLGFEATMPTTAITLQQAKARDVQNFYFFCQHITLIPTLRSLLEQPDNGIDAFLAPGHVSMVIGTDAYNFIASDFHRPLVVAGFEPLDLLQGVVMLVQQKIAAHSKVENQYRRVVPDAGNLLAQQAIADVFCVNGDSEWRGLGVIESSGVHLTPDYQRFDAEAHFRPAPQQVCDDPRARCGEVLTGKCKPHQCPLFGNTCNPQTAFGALMVSSEGACAAWYQYRQQESEA

No constants are given. Whether binding was seen depends on the method and setting. Some results given as binding are weak or reduced against the parent protein; the word gives no strength. Where a sequence is shown, tags or fusion partners need not be part of it.

The target in the test is T1, HybG with C‐terminal Strep‐TagII (E. coli) (UniProt P0AAM7).
T1 sequence: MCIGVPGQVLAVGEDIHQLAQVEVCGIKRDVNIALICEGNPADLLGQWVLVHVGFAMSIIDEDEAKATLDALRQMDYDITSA
The test can be described thus: co-purification (Strep-tag affinity chromatography, then anion exchange chromatography); proteins co-expressed in E. coli; StrepII-tag only on the chaperone; Strep‐tactinXT Sepharose, then Q‐Sepharose Fast Flow (NaCl gradient 0.1–1 M in 50 mM Tris–HCl pH 8); anaerobic chamber, 4 °C; complexes analysed by SDS/PAGE and western blotting with anti‐HypD or anti‐HybG antiserum. (Immunoblotting shows a protein as a band on a membrane.)
Take B1: the binding entry is “binds”.

For B2, the binding entry was “binds”.

On to B3, for which the binding result was “binds”.

On to B4, for which the binding entry was “binds”.

On to B5, for which the binding result was “binds”.

In the case of B6, the binding entry is “binds”.

On to B7, for which the binding entry is “binds”.

B8: the binding result was “binds”.

For the molecule B9, the binding entry is on record as “binds”.

With B10, the binding entry is on record as “binds”.

B11: the binding entry was “binds”.

Consider B12, for which the binding entry is “binds”.

Consider B13, for which the binding entry is “binds”.
